The values below come from patent publication US9809627B2 (Wisconsin Alumni Research Foundation, priority 2014, dated 2017).

The data set is described as follows: general procedure: Fmoc solid-phase peptide synthesis; Fmoc-PAL-PEG-PS (Applied Biosystems); PyBOP (on-resin cyclization). Particulars: cyclisation step.

With SKVVT^DPGRYTIAALLSPYSYSQ, the outcome is “cyclization failed, and a side product with mass 53 amu higher than the starting peptide was produced”.

For the substance “SKVVT^DPPRYTIAALLSPYSYSQ [CG3] (chain 1 SKVVTPPRYTIAALLSPYSYSQ; chain 2 SKVVTPPRYTIAALLSPYSYSQ; cyclic, DPro-Pro template; (5)..(5) D-amino acid)”, the cyclisation yield result (estimated from HPLC peak area) was “about 40%”.
